Assay results as given in patent US20100104603A1.
No constants are given. Whether binding was seen depends on the method and setting. Some binding calls cover weakened binding; strength is not graded here.

Amino acid sequences for entries named in this document (tags omitted). A change or cut given only in a name is not applied to a line headed by its entry. Residues count along the entry.
UniProt P10145, residues 28-99: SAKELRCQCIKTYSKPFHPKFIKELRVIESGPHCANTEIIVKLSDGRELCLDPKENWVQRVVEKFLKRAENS
UniProt P13500, residues 24-99: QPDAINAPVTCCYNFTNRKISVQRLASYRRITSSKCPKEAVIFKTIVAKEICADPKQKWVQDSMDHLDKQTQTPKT
UniProt A0A0H3K6Z6: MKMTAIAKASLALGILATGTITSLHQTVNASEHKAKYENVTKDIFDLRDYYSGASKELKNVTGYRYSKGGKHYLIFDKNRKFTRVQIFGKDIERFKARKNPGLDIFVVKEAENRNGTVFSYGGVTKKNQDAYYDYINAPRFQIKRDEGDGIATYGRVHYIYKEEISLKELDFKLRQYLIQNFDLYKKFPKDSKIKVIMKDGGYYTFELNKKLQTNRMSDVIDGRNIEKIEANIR

Tests used:
[1] = target: IL-8 (UniProt P10145); experiment: ELISA, IL-8-coated surface, PSGL-1-Ig with SSL5 (legend of FIG. 13)
[2] = target: IL-8 (UniProt P10145); experiment: flow cytometry, IL-8 on SSL5-pretreated U937 cells (legend of FIG. 10)
[3] = target: MCP-1 (UniProt P13500); experiment: flow cytometry, MCP-1 on SSL5-pretreated U937 cells (legend of FIG. 10)

Measured: binding

Staphylococcal superantigen-like protein 5 (SSL5) of S. aureus strain NTCT 8325, recombinant (from UniProt A0A0H3K6Z6 31-234)
binds: all assays above
